For test [1], the target named is monoclonal 6470 rabbit Fab. The test is described as follows: condition: 1 µM peptide (from paragraph 308; not on the sheet); competitive SPR: 6470 Fab pre-incubated with peptide, injected over immobilised human alpha synuclein monomer and fibrils; %inhibition.
The next test addresses T1, AS115-124 (human).
T1 sequence (peptide, N-terminal acetyl, C-terminal amide): DMPVDPDNEA
The test is described as follows: competitive SPR (Biacore 3000), 50 nM Fab pre-incubated with peptide.

The target in a further test is T2, AS119-128 (human).
T2 sequence (peptide, N-terminal acetyl, C-terminal amide): DPDNEAYEMP
Described as above.

Another test has as its target T3, AS127-136 (human).
T3 sequence (peptide, N-terminal acetyl, C-terminal amide): MPSEEGYQDY
Described as above.

Results are given in words; binding and its absence hold for the method and conditions named.

As for DMPVDPDNEA (N-terminal acetyl, C-terminal amide) [AS115-124], the binding entry in test [1] is recorded as “no binding”.

B1: monoclonal 6470 rabbit Fab (Fab, V domains shown)
VH: QSVEESGGRLVTPGTPLTLTCTVSGIDLSSHDMYWVRQAPGKGLEYIGAIYASGSTYYASWAKGRFTISKTSTTVDLKMTSLTTEDTATYFCARIHYGNSGGLWGQGTLVTVSS
VL: AIVMTQTPSSKSVAVGDTVTINCQASQSVYKNNYLAWFQQKPGQPPKQLIYGASTLASGVPSRFKGSGSGTQFTLTISDVVCDDAATYYCAGYKGGRNDGFAFGGGTEVVVKR
B1: the binding result with AS115-124 (human), with AS119-128 (human) and in the test with AS127-136 (human) was “no binding (tested: 1 µM peptide)” throughout.

(Values after patent publication US20210107971A1.)
